The test system of this assay is CD2F1 mice, L1210 leukemia ip, survival T/C. Put plainly: NCI In Vivo Anticancer Drug Screen. Data for tumor model L1210 Leukemia (intraperitoneal) in CD2F1 (CDF1) mice. The conditions noted are these: higher T/C = longer survival. Put shortly:
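Mice carrying a transplanted tumor received test compound or vehicle alone. The value is the measurement in the treated group divided by that in the vehicle-treated control group.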

The mark [1] stands for this setting: T/C endpoint: mean survival time, dose: 400.0 mg/kg/injection, schedule: Q01DX009 (ip), vehicle: saline.
The mark [2] stands for this setting: T/C endpoint: mean survival time, dose: 200.0 mg/kg/injection, schedule: Q04DX003 (ip), vehicle: saline.
[3] abbreviates: T/C endpoint: mean survival time, dose: 400.0 mg/kg/injection, schedule: Q04DX003 (ip), vehicle: saline.
Setting [4] is: T/C endpoint: mean survival time, dose: 100.0 mg/kg/injection, schedule: Q01DX009 (ip), vehicle: saline with Tween-80.
[5] abbreviates: T/C endpoint: mean survival time, dose: 200.0 mg/kg/injection, schedule: Q01DX009 (ip), vehicle: saline with Tween-80.
Setting [6] is: T/C endpoint: mean survival time, dose: 400.0 mg/kg/injection, schedule: Q04DX003 (ip), vehicle: saline with Tween-80.
Setting [7] is: T/C endpoint: mean survival time, dose: 400.0 mg/kg/injection, schedule: Q01DX009 (ip), vehicle: saline with Tween-80.
Where [8] appears, read: T/C endpoint: mean survival time, dose: 6.25 mg/kg/injection, schedule: Q01DX009 (ip), vehicle: saline with Tween-80.

SMILES strings stand for the structures. The list is a part of this screen's results and no random one: it is rich in T/C values a quarter to a half above the control, in often repeated tests (any T/C) and in doses without a T/C. Further doses and runs are listed elsewhere. T/C gives the treated animals as a percentage of the vehicle group. Some doses have a count of surviving animals in place of a T/C: the source files T/C as zero there, which appears to mark a toxic dose or a test without result, not a measured value. Some doses without a T/C left all or most animals alive at the check, yet need not have been tolerated: the source hardly ever lists a survival T/C far under the control, and the zero likely stands for such cases as well. Survivors were counted at the toxicity check, usually on the fifth day, unless a day is given; later deaths do not show. Schedule codes are those of the source, taken here to give the interval after Q, in days (D) or hours (H), and the number of doses after X. Some doses were run more than once; the values are given in rising order. Where survival is the endpoint, this PubChem deposit counts one and a half times the control or more as active, and values a quarter to a half above the control carry no call in these data; other NCI protocols may use other cut-offs. Some schedule codes hold Z or #, which are not explained here.

As to `Cc1c([N+](=O)[O-])cc(Cl)n[n+]1[O-]`, the survivor count is listed as 3 of 3 (T/C endpoint: mean survival time, dose: 12.5 mg/kg/injection, schedule: Q04DX002 (ip), vehicle: saline with Tween-80); 1 of 3 (T/C endpoint: mean survival time, dose: 25.0 mg/kg/injection, schedule: Q04DX002 (ip), vehicle: saline with Tween-80); 0 of 3 (T/C endpoint: mean survival time, dose: 50.0 mg/kg/injection, schedule: Q04DX002 (ip), vehicle: saline with Tween-80).
For `C1CCC2CN(CCCN3CCOCC3)CC2C1` (stereo not drawn), the survivor count under setting [1] is 0 of 6.
As for `Nc1nc2ccc(Cl)cc2[nH]1`, the survivor count (T/C endpoint: mean survival time, dose: 200.0 mg/kg/injection, schedule: Q01DX009 (ip), vehicle: Klucel (hydroxypropylcellulose) (HPC)) is on record as 1 of 3.
Take `CCOC(=O)CCC(NC(=O)OCCNCCCl)C(=O)OCC` (stereo not drawn): where the note is “T/C endpoint: mean survival time, dose: 640.0 mg/kg/injection, schedule: Q01DX Z (ip), vehicle: saline”, the T/C was 131 % of control.
In the case of `CC(CN)OCc1ccccc1` (stereo not drawn), the survivor count reads like this: (T/C endpoint: mean survival time, dose: 100.0 mg/kg/injection, schedule: Q04DX003 (ip), vehicle: saline) 6 of 6; under setting [2], 1 of 6; under setting [3], 0 of 6.
For `Nc1nc(N)c2ncn(C3CC(CO)C(O)C3O)c2n1` (stereo not drawn), the survivor count is reported as 3 of 3 under setting [4] and 2 of 3 under setting [5].
For `CCC1CN2C(=N1)c1ccccc1-c1cc(Cl)ccc12` (stereo not drawn), the T/C (T/C endpoint: mean survival time, dose: 40.0 mg/kg/injection, schedule: Q04DX003 (ip), vehicle: Klucel (hydroxypropylcellulose) (HPC)) was 134 % of control.
As to `O=C1[O][Sb]23[O]C(=O)C([O]2)C(O)C(O)C2[O][Sb]4([O]C(=O)C([O]4)C(O)C(O)C1[O]3)[O]C2=O` (stereo not drawn), the survivor count reads like this: under setting [2], 4 of 6; (T/C endpoint: mean survival time, dose: 400.0 mg/kg/injection, schedule: Q01DX001 (ip), vehicle: saline) 3 of 6.
For `C1CC2CCC3CCCC4CCC(C1)C2C34` (stereo not drawn), under setting [6], the survivor count was 6 of 6.
Take `Oc1cc2c3c(c1)c1cc4c(cc1c[n+]3CC2)OCO4`: the T/C reads like this: (T/C endpoint: mean survival time, dose: 6.25 mg/kg/injection, schedule: Q01DX009 (ip), vehicle: other) 125 % of control; (T/C endpoint: mean survival time, dose: 6.25 mg/kg/injection, schedule: Q01DX009 (ip), vehicle: water) 126 % of control; (T/C endpoint: mean survival time, dose: 12.5 mg/kg/injection, schedule: Q01DX009 (ip), vehicle: other) 139 % of control; (T/C endpoint: mean survival time, dose: 25.0 mg/kg/injection, schedule: Q01DX009 (ip), vehicle: water) 137 % of control. In addition, the survivor count (T/C endpoint: mean survival time, dose: 50.0 mg/kg/injection, schedule: Q01DX009 (ip), vehicle: other) is 5 of 6 and the survivor count (T/C endpoint: mean survival time, dose: 50.0 mg/kg/injection, schedule: Q01DX009 (ip), vehicle: water) is 3 of 6.
Turning to `CC(=O)C=C(C)[O][Tl]`, the survivor count by setting is: (T/C endpoint: mean survival time, dose: 150.0 mg/kg/injection, schedule: Q01DX001 (ip), vehicle: saline) 0 of 6; (T/C endpoint: mean survival time, dose: 300.0 mg/kg/injection, schedule: Q01DX001 (ip), vehicle: saline) 0 of 6.
Consider `CNNCCCCC(=O)NC(C)C`, for which the survivor count is, setting by setting: under setting [2], 2 of 6; under setting [3], 1 of 6.
As for `NNc1ccnc2[nH]ncc12`, the survivor count reads like this: (T/C endpoint: mean survival time, dose: 50.0 mg/kg/injection, schedule: Q01DX005 (ip), vehicle: saline) 3 of 6; (T/C endpoint: mean survival time, dose: 100.0 mg/kg/injection, schedule: Q01DX005 (ip), vehicle: saline) 0 of 6; (T/C endpoint: mean survival time, dose: 200.0 mg/kg/injection, schedule: Q01DX005 (ip), vehicle: saline) 0 of 6.
`CC(NC(=O)OCc1ccccc1)C(=O)NC(CC(=O)O)C(=O)O` (stereo not drawn): the survivor count is 0 of 6 under setting [2] and 0 of 6 under setting [3].
Regarding `CC(CC(C)C(=O)O)C(=O)O` (stereo not drawn), under setting [7], the survivor count is 4 of 6.
Regarding `Cc1cc(NCCCCCCCNc2cc(C)nc3cc(N)ccc23)c2ccc(N)cc2n1`, the survivor count is 6 of 6 (T/C endpoint: mean survival time, dose: 0.78 mg/kg/injection, schedule: Q01DX009 (ip), vehicle: saline with Tween-80); 6 of 6 (T/C endpoint: mean survival time, dose: 1.56 mg/kg/injection, schedule: Q01DX009 (ip), vehicle: saline with Tween-80); 6 of 6 (T/C endpoint: mean survival time, dose: 3.12 mg/kg/injection, schedule: Q01DX009 (ip), vehicle: saline with Tween-80); 6 of 6 under setting [8]; 5 of 6 (T/C endpoint: mean survival time, dose: 12.5 mg/kg/injection, schedule: Q01DX009 (ip), vehicle: saline with Tween-80); 5 of 6 and 6 of 6 (T/C endpoint: mean survival time, dose: 25.0 mg/kg/injection, schedule: Q01DX009 (ip), vehicle: saline with Tween-80). The survivor count (T/C endpoint: median survival time, dose: 25.0 mg/kg/injection, schedule: Q01DX009 (ip), vehicle: distilled water + Tween-80) is 5 of 8; the survivor count (T/C endpoint: median survival time, dose: 25.0 mg/kg/injection, schedule: Q01DX009 (ip), vehicle: other) was 1 of 8; the survivor count (T/C endpoint: median survival time, dose: 25.0 mg/kg/injection, schedule: Q01DX009 (ip), vehicle: water) is recorded as 1 of 6. Moreover, the T/C under setting [8] is 126 % of control; the T/C (T/C endpoint: median survival time, dose: 1.56 mg/kg/injection, schedule: Q01DX009 (ip), vehicle: water) was 134 % of control; the T/C (T/C endpoint: median survival time, dose: 3.12 mg/kg/injection, schedule: Q01DX009 (ip), vehicle: distilled water + Tween-80) was 130 % of control; the T/C (T/C endpoint: median survival time, dose: 3.12 mg/kg/injection, schedule: Q01DX009 (ip), vehicle: other) was 129 % of control; the T/C (T/C endpoint: median survival time, dose: 3.12 mg/kg/injection, schedule: Q01DX009 (ip), vehicle: water) was 139 % of control; the T/C (T/C endpoint: median survival time, dose: 6.25 mg/kg/injection, schedule: Q01DX009 (ip), vehicle: distilled water + Tween-80) is 134 % of control.
`C=CC(=O)NCNC(=O)C=C`: under setting [4], the T/C was 137 % of control. In addition, the survivor count under setting [5] was 3 of 6; the survivor count (T/C endpoint: mean survival time, dose: 200.0 mg/kg/injection, schedule: Q01DX009 (ip), vehicle: saline) was 2 of 6; the survivor count under setting [7] is listed as 0 of 6; the survivor count under setting [1] is reported as 0 of 6.
As for `Oc1ccccc1C=NCCN=Cc1ccccc1O.[CH3][Sn]([CH3])([Cl])[Cl]`, the survivor count was 2 of 6 under setting [4], 0 of 6 under setting [5] and 0 of 6 under setting [7].
With `CC1Oc2cc3c(-c4c(O)cc(O)c5c(O)c6c(cc45)OC(C)C(C)C6=O)c(O)cc(O)c3c(O)c2C(=O)C1C` (stereo not drawn), the survivor count (T/C endpoint: median survival time, dose: 20.0 mg/kg/injection, schedule: Q01DX009 (ip), vehicle: suspension in saline) is reported as 3 of 6; the survivor count (T/C endpoint: median survival time, dose: 40.0 mg/kg/injection, schedule: Q01DX009 (ip), vehicle: suspension in saline) was 1 of 6; the survivor count (T/C endpoint: median survival time, dose: 80.0 mg/kg/injection, schedule: Q01DX009 (ip), vehicle: suspension in saline) is 0 of 6.
For `CCC(C)C(CO)c1ccccc1` (stereo not drawn), the survivor count under setting [5] was 0 of 6.
Turning to `CN(C)c1cc(C(C)(C)C)nc(C(C)(C)C)c1`, the survivor count is reported as 0 of 3 (T/C endpoint: mean survival time, dose: 100.0 mg/kg/injection, schedule: Q04DX002 (ip), vehicle: saline); 0 of 3 (T/C endpoint: mean survival time, dose: 200.0 mg/kg/injection, schedule: Q04DX002 (ip), vehicle: saline); 0 of 3 (T/C endpoint: mean survival time, dose: 400.0 mg/kg/injection, schedule: Q04DX002 (ip), vehicle: saline).
Regarding `CCC(C)CNCCO` (stereo not drawn), the survivor count under setting [3] is listed as 2 of 6.
With `CCCCNC(=O)Oc1ccc(OCc2ccccc2)cc1`, the survivor count under setting [6] is on record as 6 of 6.
For `O=C1OC(=O)C2C3OC(C4CN=NC43)C12` (stereo not drawn), where the note is “T/C endpoint: mean survival time, dose: 400.0 mg/kg/injection, schedule: Q04DX002 (ip), vehicle: saline with Tween-80”, the survivor count is recorded as 1 of 3.
As for `COc1ccc(C(CC(=O)c2ccccc2)CC(=O)c2ccccc2)cc1`, under setting [4], the survivor count is 6 of 6.
Consider `Cc1cc[n+](-c2c3c(nc4ccccc24)-c2ccccc2C(C)(C)C3)cc1`, for which the survivor count runs as follows: (T/C endpoint: mean survival time, dose: 100.0 mg/kg/injection, schedule: Q04DX003 (ip), vehicle: saline sonified) 6 of 6; (T/C endpoint: mean survival time, dose: 200.0 mg/kg/injection, schedule: Q01DX001 (ip), vehicle: saline with Tween-80) 0 of 6; (T/C endpoint: mean survival time, dose: 400.0 mg/kg/injection, schedule: Q01DX001 (ip), vehicle: saline with Tween-80) 0 of 6.

These data come from PubChem BioAssay AID256 (DTP/NCI, 2004).
